Results as given in publication PMC6042370.
These are yes or no findings as the source states them, for the method shown. In cells and extracts the contact can be indirect. A result given as binding can be weak or reduced; the word gives no strength. Tags and fused reporters may be left off the sequences shown.

Molecular target: T1, FLAG-ATF2 (ATF2-WT) (human (cDNA from a 293T library)) (UniProt P15336)
T1 sequence: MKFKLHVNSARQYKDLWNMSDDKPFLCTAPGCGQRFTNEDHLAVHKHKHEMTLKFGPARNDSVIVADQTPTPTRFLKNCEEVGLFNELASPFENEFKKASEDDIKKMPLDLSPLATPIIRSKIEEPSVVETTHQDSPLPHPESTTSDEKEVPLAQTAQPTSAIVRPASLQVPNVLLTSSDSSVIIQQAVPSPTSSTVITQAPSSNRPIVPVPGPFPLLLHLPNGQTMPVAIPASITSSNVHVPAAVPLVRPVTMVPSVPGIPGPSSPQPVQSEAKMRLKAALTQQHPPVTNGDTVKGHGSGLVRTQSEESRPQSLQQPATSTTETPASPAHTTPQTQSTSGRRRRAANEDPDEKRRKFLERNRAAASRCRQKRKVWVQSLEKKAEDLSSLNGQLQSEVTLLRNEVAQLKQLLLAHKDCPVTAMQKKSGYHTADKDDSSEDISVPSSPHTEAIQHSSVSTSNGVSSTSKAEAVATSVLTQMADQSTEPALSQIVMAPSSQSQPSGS
Test: co-IP; 293T cells co-transfected, lysed 24 h later in BC100 buffer; anti-FLAG M2 agarose overnight, elution with FLAG peptide, Western blot

SPOP-ΔBTB (domain or fragment)
binding: binds
